PubChem BioAssay AID1053208 – Peter MacCallum Cancer Centre – 2014
Here is an unselected part of about 17,000 reagents tested. 788 of them (4.7%) were called active. 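Calls rest on z-score classes alone; an extra cut-off of viability at most 70% of control was not applied to them.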 Further read-outs or replicates are left out here. Reagent sequences are not shown.

Test: 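Find knock-downs that sensitise mouse osteosarcoma cells to doxorubicin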 (primary screen)
System: mouse osteosarcoma cells, early-passage culture from an engineered mouse model of fibroblastic bone tumour
Reagents: siRNA pool against mouse genes, 40 nM
Time to read-out: about 120 h (48 h before drug, then 72 h with drug)
Challenge: doxorubicin 100 nM for 72 h, roughly 30-40% inhibitory dose
Measured: 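Luminescent ATP signal taken as viability with or without 100 nM doxorubicin for 72 h; mean of two wells set against non-targeting siRNA and turned into robust z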
Direction: viability z-score with doxorubicin: higher = more viable cells under doxorubicin; viability z-score without drug: higher = more viable cells with knock-down alone
Rule for the call: 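a pool counts as active when its viability z-score with doxorubicin is -2 or below and its z-score without drug lies between -2 and 2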

Or52k2 (olfactory receptor family 52 subfamily K member 2) gave combined z-score class no change with or without drug; viability z-score with doxorubicin -1.35; viability z-score without drug -1.18; inactive. Or14j2 (olfactory receptor family 14 subfamily J member 2) gave combined z-score class low cell count with doxorubicin only; viability z-score with doxorubicin -2.02; viability z-score without drug -1.85; active. After knock-down of Marchf10 (membrane associated ring-CH-type finger 10) the results were combined z-score class high cell count without drug only; viability z-score with doxorubicin -0.45; viability z-score without drug 2.19; inactive. Against Dap3 (death associated protein 3), the entry reads combined z-score class no change with or without drug; viability z-score with doxorubicin 0; viability z-score without drug -1.01; inactive. Silencing of Glo1 (glyoxalase 1) resulted in: combined z-score class no change with or without drug; viability z-score with doxorubicin -0.9; viability z-score without drug -0.34; inactive. With knock-down of Prcp (prolylcarboxypeptidase (angiotensinase C)), the record shows combined z-score class no change with or without drug; viability z-score with doxorubicin 0.9; viability z-score without drug 0.67; inactive.

For Cspg5 (chondroitin sulfate proteoglycan 5), the values are combined z-score class no change with or without drug; viability z-score with doxorubicin 0.45; viability z-score without drug 1.35; inactive. For Akap8l (A kinase anchor protein 8-like), the entry reads combined z-score class no change with or without drug; viability z-score with doxorubicin -1.69; viability z-score without drug -1.18; inactive. Garin2 (golgi associated RAB2 interactor 2) showed combined z-score class no change with or without drug; viability z-score with doxorubicin -0.67; viability z-score without drug 0.17; inactive.

Reformatted: results already given.
gene knocked down,combined z-score class,viability z-score with doxorubicin,viability z-score without drug,activity call
Marchf10 (membrane associated ring-CH-type finger 10),high cell count without drug only,-0.45,2.19,inactive
Dap3 (death associated protein 3),no change with or without drug,0,-1.01,inactive

The results go on.
Exosc6 (exosome component 6) showed combined z-score class no change with or without drug; viability z-score with doxorubicin 0.22; viability z-score without drug 0.17; inactive. With knock-down of Alyreffm1 (Aly/REF export factor family member 1), the record shows combined z-score class high cell count without drug only; viability z-score with doxorubicin 0.34; viability z-score without drug 3.2; inactive. For Brwd1 (bromodomain and WD repeat domain containing 1) the deposit lists combined z-score class no change with or without drug; viability z-score with doxorubicin -1.12; viability z-score without drug -0.17; inactive. Silencing of Mapk15 (mitogen-activated protein kinase 15) gave: combined z-score class no change with or without drug; viability z-score with doxorubicin -1.35; viability z-score without drug 0.51; inactive. After knock-down of Cybc1 (cytochrome b 245 chaperone 1), the record shows combined z-score class no change with or without drug; viability z-score with doxorubicin -0.22; viability z-score without drug -0.17; inactive. Depletion of Zfp868 (zinc finger protein 868) resulted in: combined z-score class no change with or without drug; viability z-score with doxorubicin 0.67; viability z-score without drug -0.51; inactive.

Depletion of Bcas1 (brain enriched myelin associated protein 1) resulted in: combined z-score class no change with or without drug; viability z-score with doxorubicin 0.45; viability z-score without drug 0; inactive. Against Sun1 (Sad1 and UNC84 domain containing 1), the values are combined z-score class no change with or without drug; viability z-score with doxorubicin -1.46; viability z-score without drug 0.84; inactive. For Rfwd3 (ring finger and WD repeat domain 3), the entry reads combined z-score class no change with or without drug; viability z-score with doxorubicin -0.45; viability z-score without drug -0.17; inactive. Silencing of Or2t1 (olfactory receptor family 2 subfamily T member 1) came out at: combined z-score class no change with or without drug; viability z-score with doxorubicin -0.22; viability z-score without drug -1.18; inactive. With knock-down of Sgms2 (sphingomyelin synthase 2), the screen gave combined z-score class no change with or without drug; viability z-score with doxorubicin -1.35; viability z-score without drug 1.52; inactive. Tmed10 (transmembrane p24 trafficking protein 10) showed combined z-score class no change with or without drug; viability z-score with doxorubicin -1.8; viability z-score without drug -0.51; inactive.

Depletion of Sgtb resulted in: combined z-score class no change with or without drug; viability z-score with doxorubicin 0.45; viability z-score without drug 0.51; inactive. Silencing of Cnnm2 (cyclin M2) gave: combined z-score class no change with or without drug; viability z-score with doxorubicin 0.22; viability z-score without drug -0.51; inactive. With knock-down of Lrriq4 (leucine-rich repeats and IQ motif containing 4), the record shows combined z-score class no change with or without drug; viability z-score with doxorubicin -1.12; viability z-score without drug -0.17; inactive. Silencing of Vmn1r202 (vomeronasal 1 receptor 202) gave: combined z-score class no change with or without drug; viability z-score with doxorubicin -1.35; viability z-score without drug -0.51; inactive. After knock-down of Grb14 (growth factor receptor bound protein 14) the results were combined z-score class no change with or without drug; viability z-score with doxorubicin -0.45; viability z-score without drug -0.51; inactive. Spock1 showed combined z-score class low cell count with doxorubicin only; viability z-score with doxorubicin -2.92; viability z-score without drug 0.17; active.

Gm5114 (predicted gene 5114) scored combined z-score class no change with or without drug; viability z-score with doxorubicin -0.67; viability z-score without drug -0.34; inactive.
